Experimental data as given in patent US10159726B2, “Peptides, combination of peptides and scaffolds for use in immunotherapeutic treatment of various cancers” (Immatics Biotechnologies GmbH, priority 2015, dated 2018).

Experiments:
Parameters in all cases: species or system human
[1] = tested on: source genes of selected peptides; test: Expression profiling of source genes by in-house RNAseq, tumor vs normal tissues (target coverage); details: for Target coverage, over-expression of source gene, AML: AML (N = 7); for Target coverage, over-expression of source gene, AML / Target coverage, over-expression of source gene, BRCA / Target coverage, over-expression of source gene, CLL / Target coverage, over-expression of source gene, CRC / Target coverage, over-expression of source gene, GB / Target coverage, over-expression of source gene, HCC / Target coverage, over-expression of source gene, OC / Target coverage, over-expression of source gene, OSCAR / Target coverage, over-expression of source gene, PC / Target coverage, over-expression of source gene, RCC / Target coverage, over-expression of source gene, SCLC / Target coverage, over-expression of source gene, pNSCLC: share of tumors with more than 1.5-fold higher expression than highest relevant normal tissue, in-house RNASeq; for Target coverage, over-expression of source gene, BRCA: BRCA (N = 10); for Target coverage, over-expression of source gene, CLL: CLL (N = 10); for Target coverage, over-expression of source gene, CRC: CRC (N = 20); for Target coverage, over-expression of source gene, GB: GB (N = 24); for Target coverage, over-expression of source gene, HCC: HCC (N = 15); for Target coverage, over-expression of source gene, OC: OC (N = 12); for Target coverage, over-expression of source gene, OSCAR: OSCAR (N = 11); for Target coverage, over-expression of source gene, PC: PC (N = 26); for Target coverage, over-expression of source gene, RCC: RCC (N = 10); for Target coverage, over-expression of source gene, SCLC: SCLC (N = 10); for Target coverage for source genes of selected peptides, GBC_CCC (N = 10): gallbladder adenocarcinoma and cholangiocarcinoma; for Target coverage for source genes of selected peptides, GBC_CCC (N = 10) / Target coverage for source genes of selected peptides, GC (N = 11) / Target coverage for source genes of selected peptides, HNSCC (N = 10) / Target coverage for source genes of selected peptides, MEL (N = 10) / Target coverage for source genes of selected peptides, NHL (N = 10) / Target coverage for source genes of selected peptides, PCA (n = 10) / Target coverage for source genes of selected peptides, UBC (N = 10) / Target coverage for source genes of selected peptides, UTC (N = 10): share of tumors with more than 1.5-fold higher expression than the highest-expressing relevant normal tissue, in-house RNAseq; for Target coverage for source genes of selected peptides, GC (N = 11): gastric cancer; for Target coverage for source genes of selected peptides, HNSCC (N = 10): head and neck small cell carcinoma; for Target coverage for source genes of selected peptides, MEL (N = 10): melanoma; for Target coverage for source genes of selected peptides, NHL (N = 10): non-Hodgkin lymphoma; for Target coverage, over-expression of source gene, pNSCLC: pNSCLC (N = 11); for Target coverage for source genes of selected peptides, PCA (n = 10): prostate cancer and benign prostate hyperplasia; for Target coverage for source genes of selected peptides, UBC (N = 10): urinary bladder cancer; for Target coverage for source genes of selected peptides, UTC (N = 10): uterine cancer
[2] = tested on: source genes of selected peptides; test: Target coverage of source genes in tumor entities based on TCGA Research Network data; details: over-expressed = more than 2-fold above the highest 75% percentile of normal organs; for Target coverage, over-expression category of source gene, BLCA (N = 408): Bladder urothelial carcinoma; for Target coverage, over-expression category of source gene, CESC (N = 307): Cervical squamous cell carcinoma and endocervical adenocarcinoma; for Target coverage, over-expression category of source gene, HNSC (N = 521): Head and neck squamous cell carcinoma; for Target coverage, over-expression category of source gene, DLBC (N = 48): Lymphoid neoplasm diffuse large B-cell lymphoma; for Target coverage, over-expression category of source gene, MESO (N = 87): Mesothelioma
[3] = tested on: HLA-A*24 molecules of primary tumors; test: Identification and relative LC-MS quantitation of HLA-A*24 tumor-associated peptides presented on tissue samples (XPRESIDENT presentation profiles); details: Table 9A: selected HLA-A*24-binding tumor-associated peptides; cancer entities on which the peptide was found presented

Substance | Target coverage, over-expression of source gene, AML [1] | Target coverage, over-expression of source gene, BRCA [1] | Target coverage, over-expression of source gene, CLL [1] | Target coverage, over-expression of source gene, CRC [1] | Target coverage, over-expression of source gene, GB [1] | Target coverage, over-expression of source gene, HCC [1] | Target coverage, over-expression of source gene, OC [1] | Target coverage, over-expression of source gene, OSCAR [1] | Target coverage, over-expression of source gene, PC [1] | Target coverage, over-expression of source gene, RCC [1] | Target coverage, over-expression of source gene, SCLC [1] | Target coverage for source genes of selected peptides, GBC_CCC (N = 10) [1] | Target coverage for source genes of selected peptides, GC (N = 11) [1] | Target coverage for source genes of selected peptides, HNSCC (N = 10) [1] | Target coverage for source genes of selected peptides, MEL (N = 10) [1] | Target coverage for source genes of selected peptides, NHL (N = 10) [1] | Target coverage, over-expression of source gene, pNSCLC [1] | Target coverage for source genes of selected peptides, PCA (n = 10) [1] | Target coverage for source genes of selected peptides, UBC (N = 10) [1] | Target coverage for source genes of selected peptides, UTC (N = 10) [1] | also measured
354: peptide found in KIF18A (gene looked up) (VYNEQIRDLL; listed as Homo sapiens) [compound 354] | I (<19% over-expression = I) | I (<19% over-expression = I) | I (<19% over-expression = I) | I (<19% over-expression = I) | I (<19% over-expression = I) | I (<19% over-expression = I) | I (<19% over-expression = I) | I (<19% over-expression = I) | I (<19% over-expression = I) | I (<19% over-expression = I) | II (20-49% = II) | I (<19% over-expression = I) | I (<19% over-expression = I) | I (<19% over-expression = I) | I (<19% over-expression = I) | I (<19% over-expression = I) | I (<19% over-expression = I) | I (<19% over-expression = I) | I (<19% over-expression = I) | I (<19% over-expression = I) | Target coverage, over-expression category of source gene, ACC (N = 79) ([2]; Adrenocortical carcinoma): C (>=5% of tumors above the cutoff, but <20%); Target coverage, over-expression category of source gene, BLCA (N = 408) [2]: B (>=20% of tumors above the cutoff, but <50%); Target coverage, over-expression category of source gene, CESC (N = 307) [2]: A (>=50% of tumors above the cutoff); Target coverage, over-expression category of source gene, CHOL (N = 36) ([2]; Cholangiocarcinoma): C (>=5% of tumors above the cutoff, but <20%); Target coverage, over-expression category of source gene, HNSC (N = 521) [2]: B (>=20% of tumors above the cutoff, but <50%); Target coverage, over-expression category of source gene, DLBC (N = 48) [2]: B (>=20% of tumors above the cutoff, but <50%); Target coverage, over-expression category of source gene, MESO (N = 87) [2]: B (>=20% of tumors above the cutoff, but <50%); ENTITIES [3]: NSCLC, GC, GB
360: peptide found in PSMA7 (gene looked up) (VFSPDGHLF; listed as Homo sapiens) [compound 360] | I (<19% over-expression = I) | II (20-49% = II) | I (<19% over-expression = I) | I (<19% over-expression = I) | I (<19% over-expression = I) | I (<19% over-expression = I) | I (<19% over-expression = I) | I (<19% over-expression = I) | I (<19% over-expression = I) | I (<19% over-expression = I) | I (<19% over-expression = I) | I (<19% over-expression = I) | I (<19% over-expression = I) | I (<19% over-expression = I) | I (<19% over-expression = I) | II (20-49% = II) | I (<19% over-expression = I) | I (<19% over-expression = I) | I (<19% over-expression = I) | I (<19% over-expression = I) | Target coverage, over-expression category of source gene, BLCA (N = 408) [2]: C (>=5% of tumors above the cutoff, but <20%); Target coverage, over-expression category of source gene, CESC (N = 307) [2]: C (>=5% of tumors above the cutoff, but <20%); Target coverage, over-expression category of source gene, HNSC (N = 521) [2]: C (>=5% of tumors above the cutoff, but <20%); Target coverage, over-expression category of source gene, DLBC (N = 48) [2]: B (>=20% of tumors above the cutoff, but <50%); ENTITIES [3]: GB, PCA, HCC, NSCLC
361: peptide found in PSMC1 (gene looked up) (TYADIGGLDNQI; listed as Homo sapiens) [compound 361] | II (20-49% = II) | I (<19% over-expression = I) | I (<19% over-expression = I) | I (<19% over-expression = I) | I (<19% over-expression = I) | I (<19% over-expression = I) | I (<19% over-expression = I) | I (<19% over-expression = I) | I (<19% over-expression = I) | I (<19% over-expression = I) | I (<19% over-expression = I) | I (<19% over-expression = I) | I (<19% over-expression = I) | I (<19% over-expression = I) | I (<19% over-expression = I) | I (<19% over-expression = I) | I (<19% over-expression = I) | I (<19% over-expression = I) | I (<19% over-expression = I) | I (<19% over-expression = I) | Target coverage, over-expression category of source gene, BLCA (N = 408) [2]: C (>=5% of tumors above the cutoff, but <20%); Target coverage, over-expression category of source gene, CESC (N = 307) [2]: C (>=5% of tumors above the cutoff, but <20%); Target coverage, over-expression category of source gene, DLBC (N = 48) [2]: C (>=5% of tumors above the cutoff, but <20%); Target coverage, over-expression category of source gene, MESO (N = 87) [2]: C (>=5% of tumors above the cutoff, but <20%); ENTITIES [3]: PCA, NSCLC, GC, GB, RCC

For part of these data: Expression grades refer to the transcript from which the peptide derives; gene names, where given, were looked up from the sequence.
